# Values of other authors, collected in patent US20090258079A1, “Biocompatible Block Copolymer, Use Thereof and Manufacturing Method Thereof” (priority 2005, published 2009).
# Details: drug without block copolymer, stated as known property; cited from earlier work
smiles,measurement,value
CC(=O)O[C@H]1C(=O)[C@@]2(C)[C@H]([C@H](OC(=O)c3ccccc3)[C@]3(O)C[C@H](OC(=O)[C@H](O)[C@@H](NC(=O)c4ccccc4)c4ccccc4)C(C)=C1C3(C)C)[C@]1(OC(C)=O)CO[C@@H]1C[C@@H]2O [paclitaxel],solubility of the drug alone in water,insoluble in water
